Measurements as given in publication PMC12519287.

Target: T1, FLAG-PPP1R21 FL (full-length protein phosphatase 1 regulatory subunit 21 with a FLAG tag) (human) (UniProt Q6ZMI0)
T1 sequence: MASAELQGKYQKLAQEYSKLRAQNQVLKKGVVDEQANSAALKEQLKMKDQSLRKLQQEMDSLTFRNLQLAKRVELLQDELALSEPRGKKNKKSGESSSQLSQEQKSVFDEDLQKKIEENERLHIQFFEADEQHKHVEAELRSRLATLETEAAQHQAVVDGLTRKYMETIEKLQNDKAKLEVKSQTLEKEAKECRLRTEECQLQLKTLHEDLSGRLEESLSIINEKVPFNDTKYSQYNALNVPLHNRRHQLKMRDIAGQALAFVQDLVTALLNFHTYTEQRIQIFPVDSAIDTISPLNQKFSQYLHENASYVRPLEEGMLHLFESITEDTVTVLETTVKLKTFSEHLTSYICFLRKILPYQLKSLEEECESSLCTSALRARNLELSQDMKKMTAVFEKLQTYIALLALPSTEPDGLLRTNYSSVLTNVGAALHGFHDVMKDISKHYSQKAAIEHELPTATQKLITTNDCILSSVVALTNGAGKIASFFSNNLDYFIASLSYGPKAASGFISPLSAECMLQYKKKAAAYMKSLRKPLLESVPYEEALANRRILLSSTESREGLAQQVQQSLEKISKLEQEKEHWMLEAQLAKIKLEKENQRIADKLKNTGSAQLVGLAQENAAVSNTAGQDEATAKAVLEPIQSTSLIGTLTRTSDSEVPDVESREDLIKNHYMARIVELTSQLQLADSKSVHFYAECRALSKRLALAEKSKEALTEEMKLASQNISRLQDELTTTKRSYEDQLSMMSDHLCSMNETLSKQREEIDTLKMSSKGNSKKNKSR
Test: affinity purification with mass spectrometry; FLAG-PPP1R21 FL overexpressed in HEK293T cells; co-IP with anti-FLAG antibody or control IgG; 0.5% CHAPS lysis buffer; precipitates separated by SDS-PAGE, full lane analysed by MS

binding: binds
B1: endogenous AEG-1 (HEK293T) (protein, UniProt Q86UE4 1-582)
chain: MAARSWQDELAQQAEEGSARLREMLSVGLGFLRTELGLDLGLEPKRYPGWVILVGTGALGLLLLFLLGYGWAAACAGARKKRRSPPRKREEAAAVPAAAPDDLALLKNLRSEEQKKKNRKKLSEKPKPNGRTVEVAEGEAVRTPQSVTAKQPPEIDKKNEKSKKNKKKSKSDAKAVQNSSRHDGKEVDEGAWETKISHREKRQQRKRDKVLTDSGSLDSTIPGIENTITVTTEQLTTASFPVGSKKNKGDSHLNVQVSNFKSGKGDSTLQVSSGLNENLTVNGGGWNEKSVKLSSQISAGEEKWNSVSPASAGKRKTEPSAWSQDTGDANTNGKDWGRSWSDRSIFSGIGSTAEPVSQSTTSDYQWDVSRNQPYIDDEWSGLNGLSSADPNSDWNAPAEEWGNWVDEERASLLKSQEPIPDDQKVSDDDKEKGEGALPTGKSKKKKKKKKKQGEDNSTAQDTEELEKEIREDLPVNTSKTRPKQEKAFSLKTISTSDPAEVLVKNSQPIKTLPPATSTEPSVILSKSDSDKSSSQVPPILQETDKSKSNTKQNSVPPSQTKSETSWESPKQIKKKKKARRET

These are yes or no findings as the source states them, for the method shown. In cells and extracts the contact can be indirect. These calls come from enrichment with a bait or labelling near it, and not all partners need be listed. Where a sequence is shown, tags or fusion partners need not be part of it.
